Z-score data for 66 sequences are collected here from PubChem BioAssay AID1347423 (Functional Genomics Laboratory (NCATS/FGL), 2020).

Screen size: about 52,000 sequences; about 210 (0.4%) were called active.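 The calls were made as follows: active = gene whose silencing raises cell survival under the drug, median off-target-corrected z-score across its silencing RNAs 2 or more; inactive = the rest.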 This is one part of the list.

The nature of this assay: Resistance to Poly (ADP-Ribose) Polymerase inhibitor: Gene Identification via Genome-wide siRNA Screen. Particulars: mouse BRCA2 R2336H ES cells, olaparib, CellTiter-Glo viability; stronger effect = higher value. A digest of the protocol:
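Genome-wide siRNA screen (3 siRNAs/gene, 20 nM) in mouse ES cells carrying hypomorphic BRCA2 R2336H; olaparib 500 nM added 48 h post-transfection, CellTiter-Glo viability 72 h later. Normalized to plate-median negative control; MAD z-scores, gene median, seed-adjusted.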
(In general: In ATP-based viability assays light output follows the ATP content of the culture.)
Turning to GGCCUUUUCAUUGUUUGACTT against Myl4, the z-score is inactive: 0.267.

Take GGACUCCUUUAAGCCACUUTT against Prkag1: the z-score is inactive: 0.583.

For the sequence GGCACAGACCUCACAGUUATT against Olfr65, the z-score was inactive: -1.39.

Turning to GCUGGUGAUGACGUGUAUCTT against Viaat, the z-score is inactive: 0.956.

As to GGGCAGACAGUUUACAGAATT against Aco1, the z-score was inactive: -0.463.

GGCCGGCUAAAGGCUUUUUTT against Olfr1019: the z-score was inactive: -0.363.

For the sequence GGUUUAAUUCUUGUCUUGUTT against Pvt1, the z-score is inactive: -1.38.

On to “GCUUCCCGCUAUGAGUUCATT against D430041B17”, for which the z-score is inactive: 0.805.

Turning to GGACAAAGUAUUUGUGACCTT against Cd3d, the z-score was inactive: -1.59.

Turning to “GGCCCAAGAUUUCAAUUAGTT against 9130230L23Rik”, the z-score is inactive: 0.285.

For “GCCACUCACCUGUAGUUCUTT against C030030A07Rik”, the z-score was inactive: -1.51.

With CCUUUUCAGCAGAAUAUCGTT against Ifnar1, the z-score is inactive: -0.761.

Turning to GGGAAUCUAAGCUGUAUUUTT against Lyzl1, the z-score was inactive: -0.58.

Turning to GGUAGCACUUACGUGAAAUTT against Mbd2, the z-score was inactive: -0.333.

As to “GGAGAUGGAGUGAAUUGGCTT against 4933404G15Rik”, the z-score is inactive: 0.893.

For “GGAAACUACCUACUACCCGTT against 1600002H07Rik”, the z-score is inactive: 2.24.

As for GCAACAAUCUAACCUCAGATT against Mela, the z-score is inactive: -0.637.

As for GGUCGAACUUCUGUGCCAUTT against Slc39a8, the z-score is inactive: 0.173.

For GGGCAAGGGCAAGAAAUCUTT against Hist1h1t, the z-score is inactive: 2.44.

As to GCCUUCCUAGAGCUCUUUGTT against Olfr792, the z-score is inactive: -2.5.

For GGAGUUCCAUAGCUGUCAATT against Adra1b, the z-score was inactive: -1.05.

In the case of GAUGAAAGCUACAAUGAAGTT against Srpx2, the z-score was inactive: 0.127.

On to CGUCGUAUAAAUCGUAAAGTT against Pols, for which the z-score is inactive: 0.886.

In the case of GGAAGUGGACCAUUUCUUUTT against Olfr1359, the z-score is inactive: 0.342.

For the sequence CGAGCAUUUGAAUCGACUATT against Vti1b, the z-score is inactive: 0.404.

On to GCUGUCUACCAAAGUGACGTT against Cdh1, for which the z-score was inactive: -0.965.

As for GGAAGAGUGUUUAAACUAUTT against Takrp, the z-score was inactive: -1.06.

Consider “GGUACAUCAGCAACUUCGATT against 1110032N12Rik”, for which the z-score is inactive: 0.287.

For the sequence “GGUCAUCAAAUUCCUAAUCTT against E430036I04Rik”, the z-score is inactive: -0.025.

In the case of “GGAAGAACUAACAUUUGAGTT against 4732465J09Rik”, the z-score was inactive: 0.703.

For GCGAUGUCAAUCAAUUCUGTT against Gpr37l1, the z-score was inactive: 0.591.

As for “GGCUUGUCAUGAAUUUUUATT against G431002C21Rik”, the z-score was inactive: 0.681.

Take GGAAUUUUUAGGAAUGGUGTT against Slc35f2: the z-score is inactive: -0.268.

With GCUCUAAGCUUCUAGAUCATT against Csf3, the z-score is inactive: 0.567.

Consider “CCUGACUUCCCGCUAUGAGTT against 1500005N04Rik”, for which the z-score was inactive: 0.441.

With CGGGAAAGAGAUCAUCCCUTT against Nr1i2, the z-score was inactive: 0.0162.

For the sequence GGACUGAGUCAGAUUUACATT against Foxn2, the z-score was inactive: -0.0849.

For the sequence GGGCCAAGAUACCAAGAGUTT against D2Wsu81e, the z-score is inactive: -0.938.

For the sequence GCUGUAUGAUUGCCGAAAUTT against Nsddr, the z-score is inactive: 0.975.

In the case of GGACUUUGUGAAGGACUCUTT against BC023835, the z-score is inactive: -1.14.

Turning to GGAUAGCUGCCAACACUACTT against BC048937, the z-score is inactive: -0.0419.

For the sequence GCUCCUUUGGCCAUAUUAATT against Dnm2, the z-score is inactive: -1.38.

Turning to CCAGAUGUCAACCAAUAUATT against Vmd2, the z-score was inactive: 0.0474.

“GGGAAUCAAAUUCGUCUGCTT against 4632417N05Rik”: the z-score was inactive: 0.375.

Regarding CGCCUUGUAUCUUUUACAUTT against Taf1a, the z-score was inactive: -0.345.

CCAAAGUGGACAAAUUAGUTT against Pank2: the z-score was inactive: -0.59.

For GGACAAGAGAACAACUAGUTT against Mkl2, the z-score is inactive: 0.106.

For CGGAAUCGAAACUUAAUUUTT against Efcbp1, the z-score is inactive: -0.0404.

In the case of “GGCACUCAGGCUUAAUCAUTT against 9530003J23Rik”, the z-score was inactive: -0.232.

As to GGCCUGGAAACGUAUUUACTT against Snx24, the z-score was inactive: -0.267.

For the sequence GCAAAUGAUUCUUGUCAAATT against Cog7, the z-score was inactive: -0.328.

Turning to GACUGUAAUGAAGCAUUUATT against Rad21, the z-score is inactive: -3.09.

With GCGAAACGCAACAUAGUCATT against Gpr74, the z-score is inactive: 1.27.

Turning to “GCUUGAGAUAAGUGGGUUUTT against 2610510H03Rik”, the z-score is inactive: -1.55.

On to GGUUUCACUGACAAAACUATT against Zim1, for which the z-score is inactive: 0.905.

With CGCAUCAACACCUUCGUGATT against Kcnk3, the z-score is inactive: 1.18.

In the case of GCUCUUAAAACCCACCUGATT against Zfp336, the z-score was inactive: -0.147.

Take CCGAAGCCUAAGGUCCAAATT against Rpl29: the z-score is inactive: 0.919.

CCCUUCUCUGAGACAACACTT against Tcirg1: the z-score was inactive: -0.256.

CCUGAGAUCAAGAACGACATT against Crat: the z-score was inactive: 0.319.

In the case of “GGUGAUGCUUCAUAAAAAUTT against 4732497O03Rik”, the z-score was inactive: 1.12.

Take GGUUUCGGAUAAAGCCAAUTT against Wif1: the z-score is inactive: 1.2.

Take GCAUCCUAGAGGAUCAAUCTT against Smarcb1: the z-score is inactive: -2.25.

For CCAUCUCAUCCCACGACACTT against Mrgprc11, the z-score is inactive: 0.653.

For GGAGAUCUUCGAUGACAAUTT against Dvl1, the z-score is inactive: -0.164.

For the sequence CCCUCCAAAAGAAGACUAUTT against Sh3md1, the z-score is inactive: -1.04.
